Binding data for two molecules are collected here from publication PMC10783636, “Chlorophyll biosynthesis under the control of arginine metabolism” (Cell Reports, 2023).

Sequences of proteins named here, by UniProt entry; tags and fusion partners are left off.
UniProt P77581: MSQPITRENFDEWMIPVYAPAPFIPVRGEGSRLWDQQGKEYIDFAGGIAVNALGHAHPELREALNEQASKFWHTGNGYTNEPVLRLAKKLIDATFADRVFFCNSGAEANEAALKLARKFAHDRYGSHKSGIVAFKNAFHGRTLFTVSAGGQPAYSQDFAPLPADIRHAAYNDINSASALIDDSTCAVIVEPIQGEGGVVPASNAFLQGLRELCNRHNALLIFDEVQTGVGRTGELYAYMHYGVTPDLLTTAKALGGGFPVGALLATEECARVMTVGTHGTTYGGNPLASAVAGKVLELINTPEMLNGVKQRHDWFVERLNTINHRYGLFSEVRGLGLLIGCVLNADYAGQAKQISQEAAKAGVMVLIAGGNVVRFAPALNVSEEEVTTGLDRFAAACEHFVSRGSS

In test [1] the target is FLAG-tagged AstC of E. coli, the ArgD homolog, expressed in Synechocystis (Escherichia coli) (UniProt P77581). Kind of test: co-IP; f.ArgD or f.AstC purified from the soluble fraction of Synechocystis strains (ΔargD or ΔcphB background; cells with nitrate, without or with 1 mM Orn for 24 h) on anti-FLAG M2 gel, eluted with 3xFLAG peptide; SDS-PAGE, stained, blotted and probed with anti-Gun4 and anti-CphB.

Test [2] has as its target T1, 3×FLAG-tagged ArgD (N-acetylornithine aminotransferase) of Synechocystis sp. PCC 6803 (Synechocystis sp. PCC 6803) (UniProt P73133).
T1 sequence: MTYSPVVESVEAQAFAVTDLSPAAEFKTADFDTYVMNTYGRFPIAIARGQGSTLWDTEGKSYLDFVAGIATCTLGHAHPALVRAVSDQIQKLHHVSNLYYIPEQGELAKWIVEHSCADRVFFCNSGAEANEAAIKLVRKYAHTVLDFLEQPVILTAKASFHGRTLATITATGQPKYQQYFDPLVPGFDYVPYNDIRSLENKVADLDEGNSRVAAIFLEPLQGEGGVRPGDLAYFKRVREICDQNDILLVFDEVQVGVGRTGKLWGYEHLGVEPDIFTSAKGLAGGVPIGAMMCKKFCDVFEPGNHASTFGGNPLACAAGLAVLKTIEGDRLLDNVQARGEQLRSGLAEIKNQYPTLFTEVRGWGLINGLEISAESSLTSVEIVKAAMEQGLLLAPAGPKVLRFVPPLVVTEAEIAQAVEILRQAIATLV
The test is described as above.

Results are given in words; binding and its absence hold for the method and conditions named. Binding seen in cells or lysates may run through a third protein. Some results given as binding are weak or reduced against the parent protein; the word gives no strength. For part of these data: Sequences can lack the tags named with a protein.

B1: cyanophycinase CphB of Synechocystis sp. PCC 6803 (native) (enzyme, UniProt P73832 1-271, looked up)
chain: MPLSSQPAILIIGGAEDKVHGREILQTFWSRSGGNDAIIGIIPSASREPLLIGERYQTIFSDMGVKELKVLDIRDRAQGDDSGYRLFVEQCTGIFMTGGDQLRLCGLLADTPLMDRIRQRVHNGEISLAGTSAGAAVMGHHMIAGGSSGEWPNRALVDMAVGLGIVPEIVVDQHFHNRNRMARLLSAISTHPELLGLGIDEDTCAMFERDGSVKVIGQGTVSFVDARDMSYTNAALVGANAPLSLHNLRLNILVHGEVYHQVKQRAFPRVT
notes: cyanophycinase CphB, Synechocystis sp; PCC 6803, gene slr2001; printed as 29.4 kDa; Migrated like a large oligomer (>200 kDa) on the BN gel; source: endogenous, Synechocystis soluble fraction
Consider B1, for which the binding entry was “no binding” in test [1] and “binds” in test [2].

B2: 3×FLAG-tagged ArgD (N-acetylornithine aminotransferase) of Synechocystis sp. PCC 6803 (enzyme, UniProt P73133 1-429, looked up)
chain: T1 sequence
notes: N-acetylornithine aminotransferase ArgD, Synechocystis sp; PCC 6803, gene slr1022; synthetic argD gene with optimised codon usage cloned into pPD-NFLAG; f.ArgD printed as 49.8 kDa; also called f.ArgD; source: Synechocystis f.argD+/ΔargD or f.argD+/ΔcphB strain (psbAII promoter), soluble fraction; not shown: 3xFLAG, N-terminal, kept
Turning to B2, the binding result in test [2] is recorded as “binds”.
